Here are results for one substance from PMC11361748.

The chains behind the UniProt entries cited, without tags or fusion partners.
UniProt Q04695: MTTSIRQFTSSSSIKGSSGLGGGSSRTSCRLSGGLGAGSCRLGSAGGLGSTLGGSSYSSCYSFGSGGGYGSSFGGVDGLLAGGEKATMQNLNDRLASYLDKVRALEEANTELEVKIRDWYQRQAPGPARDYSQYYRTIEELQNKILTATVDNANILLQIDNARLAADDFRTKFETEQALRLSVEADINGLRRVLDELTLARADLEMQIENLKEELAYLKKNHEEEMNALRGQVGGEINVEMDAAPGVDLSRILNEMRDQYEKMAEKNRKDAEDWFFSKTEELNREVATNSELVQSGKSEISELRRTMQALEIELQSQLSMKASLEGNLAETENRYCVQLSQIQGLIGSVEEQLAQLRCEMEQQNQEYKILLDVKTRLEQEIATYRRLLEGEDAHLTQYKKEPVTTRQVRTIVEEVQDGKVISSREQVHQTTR

This assay concerns the target keratin 17 (human (endogenous in A431)) (UniProt Q04695). Put plainly: proximity ligation; Duolink PLA on fixed, permeabilised parental A431 keratinocytes treated with acetone vehicle or TPA for 30 min; PLA dots per cell; KRT17 null cells compared.

Results are given in words; binding and its absence hold for the method and conditions named. In cells and extracts the contact can be indirect. Some binding calls cover weakened binding; strength is not graded here.

For the substance “protein kinase C alpha (from UniProt P17252 1-672) (enzyme)”, the binding result is reported as “binds”.
